Experimental findings from the supplement of paper PMC8728848 are described below.

Holding throughout (experiment): glycan array binding signal (z-score within array); higher = stronger binding
Holding throughout (conditions): glycan notation: IUPAC condensed, linker removed

Experiment [1] addresses Neu5Gc(a2-8)Neu5Gc(a2-3)Gal(b1-4)GlcNAc. The essentials: (§1)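 The Consortium for Functional Glycomics database supplied 3228 glycan arrays, of which those lacking an available protein sequence were dropped. The binding signal, a within-array Z-score, was averaged across arrays of the same protein sequence and across linkers. Negative scores can be read as non-binding.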
The target in experiment [2] is Neu5Gc(a2-8)Neu5Gc(a2-3)Gal(b1-4)GlcNAc(b1-3)Gal(b1-4)GlcNAc. The essentials: as §1
Experiment [3] deals with Neu5Gc(a2-8)Neu5Gc(a2-6)Gal(b1-4)GlcNAc. In outline:
as §1

Experiment [4] has as its target Neu5Gc(b2-6)Gal(b1-4)GlcNAc. The essentials: as §1

The list shows a part of the results.

B1: BIp1-His (Cryptococcus neoformans) (protein)
chain: MFTKIFVALFAATAVLSAPVESAEKRITHTGRATFYSPSVGIGACGWQNTDEELVVALNAPQYALNADHNCGQSVRITNEQNGNQEIAKVVDLCPGCNDGDLDMSPALFGALNNNDFDQGVFPISWNFLPRDDTSSSN
Consider B1, for which the “glycan array binding signal (z-score)” value in experiment [1] was -0.973; in experiment [2], -0.843; in experiment [3], -0.752; in experiment [4] it was 1.
